From PMC11725642
Construct, isoform or probe ends are uncertain for at least one entry.

Columns and labels:
[1] = tested on: GST-OfC3H49 (Osmanthus fragrans 'Sijigui' (printed 'Sjigui')); assay: EMSA; conditions: Chemiluminescence EMSA Kit (Beyotime); pH and temperature not stated; unlabeled probes used as competitors; recombinant protein; protein details: N-terminal …
[2] = tested on: GST-OfWRKY17 (Osmanthus fragrans 'Sijigui' (printed 'Sjigui')); assay: EMSA; conditions: Chemiluminescence EMSA Kit (Beyotime); pH and temperature not stated; unlabeled probes used as competitors; recombinant protein; protein details: N-terminal …; label: biotin on F strand

## AGCATTCTCACAAAAAGTAATTTTCACTATA (double strand) [proOfSOC1B probe]
[1]
  binding result: binds

## GCATATATCTAATTGACTTGAAATAAATGAA (double strand) [proOfC3H49 probe]
[2]
  binding result: binds
